The target of assay [1] is T1, GcdC2, biotin carrier subunit of glutaconyl-CoA decarboxylase (Gcd) from Clostridium symbiosum (Clostridium symbiosum (endogenous in C. symbiosum DSM 934)) (UniProt B7TVP3).
T1 sequence (chain, biotin covalently bound (C-terminal region)): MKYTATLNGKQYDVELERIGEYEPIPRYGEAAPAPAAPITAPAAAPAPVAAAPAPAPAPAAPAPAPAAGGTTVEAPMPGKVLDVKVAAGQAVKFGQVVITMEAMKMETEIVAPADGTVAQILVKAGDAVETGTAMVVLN
Put plainly: affinity purification with mass spectrometry; Gcd solubilized from C. symbiosum membranes with 2% DDM in buffer A (50 mM phosphate pH 7.0, 400 mM NaCl, 0.05% DDM), loaded on monomeric avidin agarose, eluted with a biotin step gradient (0-2 mM); bands of SDS-PAGE identified by MALDI-TOF MS.

For assay [2], the target named is T2, GcdC1, biotin carrier subunit of glutaconyl-CoA decarboxylase (Gcd) from Clostridium symbiosum (Clostridium symbiosum (endogenous in C. symbiosum DSM 934)) (UniProt B7TVP4).
T2 sequence (chain, biotin covalently bound (C-terminal region)): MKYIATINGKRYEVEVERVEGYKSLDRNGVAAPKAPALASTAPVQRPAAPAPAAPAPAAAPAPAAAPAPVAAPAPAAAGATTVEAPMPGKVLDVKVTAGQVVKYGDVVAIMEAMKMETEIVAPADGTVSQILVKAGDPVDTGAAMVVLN
The assay is described as above.

The values below come from PMC7145394, “Molecular and Low-Resolution Structural Characterization of the Na^+-Translocating Glutaconyl-CoA Decarboxylase From Clostridium symbiosum” (Frontiers in Microbiology, 2020).

No constants are given. Whether binding was seen depends on the method and setting. Binding seen in cells or lysates may run through a third protein. These calls come from enrichment with a bait or labelling near it, and not all partners need be listed.

B1: GcdB, subunit of glutaconyl-CoA decarboxylase (Gcd) from Clostridium symbiosum (enzyme, UniProt B7TVP5 1-379, looked up)
chain: MNFFEIMGEMLAQSGFTALTWKNLVMFAISFVLLYMAIKKQYEPLLLLPIAFGMFLANLPLADLMKESEPWYTQGVLRIMYGGVKSSLFPCLIFLCVGAMTDFGPLIANPISLLLGAAAQFGIYIAFMLANATGLFTVGEAAAIGIIGGADGPTAIYIANNLAPDLVAPIAVAAYSYMALIPMIQPPIMKLLTTKKERAIVMKQLRKVSKVEKVVFPVFVVLFCSLLLPSVAPLLGMLMLGNLFRESGVVERLSDTAQNALCNIVTIMLGTTVGATANGDIFLRVQTIAIIAMGLMAFCFSTVGGVLLGKLLCVVTGGKINPLIGSAGVSAVPMAARVSQTVGSKENPTNFLLMHAMGPNVAGVIGSAVAAGFFMLIFK
notes: GcdB, membrane-spanning subunit (11 putative transmembrane helices) of glutaconyl-CoA decarboxylase, Clostridium symbiosum, 35 kDa (39 kDa in the introduction)
In the case of B1, the binding entry in assay [1] and in assay [2] was “binds” each time.
